The values that follow come from article PMC12728225.

Amino acid sequences for entries named in this document (tags omitted).
UniProt O46036: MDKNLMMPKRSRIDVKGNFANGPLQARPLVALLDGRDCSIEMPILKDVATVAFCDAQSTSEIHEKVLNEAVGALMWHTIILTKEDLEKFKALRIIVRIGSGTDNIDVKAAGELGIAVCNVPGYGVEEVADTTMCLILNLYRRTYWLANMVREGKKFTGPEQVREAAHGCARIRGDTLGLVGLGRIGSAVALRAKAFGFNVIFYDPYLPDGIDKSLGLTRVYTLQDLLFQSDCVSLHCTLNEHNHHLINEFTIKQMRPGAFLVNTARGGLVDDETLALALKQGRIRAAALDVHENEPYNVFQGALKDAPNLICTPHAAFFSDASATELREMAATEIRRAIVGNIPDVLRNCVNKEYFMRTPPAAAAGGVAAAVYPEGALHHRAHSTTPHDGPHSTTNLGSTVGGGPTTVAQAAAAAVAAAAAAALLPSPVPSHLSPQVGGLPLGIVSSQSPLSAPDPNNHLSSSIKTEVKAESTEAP

Results are given in words; binding and its absence hold for the method and conditions named. Binding seen in cells or lysates may run through a third protein. Some results given as binding are weak or reduced against the parent protein; the word gives no strength. Sequences can lack the tags named with a protein.

Assay [1] addresses T1, Drosophila histone deacetylase 3, Flag-tagged (HDAC3-Flag) (Drosophila) (UniProt Q7KTS4).
T1 sequence: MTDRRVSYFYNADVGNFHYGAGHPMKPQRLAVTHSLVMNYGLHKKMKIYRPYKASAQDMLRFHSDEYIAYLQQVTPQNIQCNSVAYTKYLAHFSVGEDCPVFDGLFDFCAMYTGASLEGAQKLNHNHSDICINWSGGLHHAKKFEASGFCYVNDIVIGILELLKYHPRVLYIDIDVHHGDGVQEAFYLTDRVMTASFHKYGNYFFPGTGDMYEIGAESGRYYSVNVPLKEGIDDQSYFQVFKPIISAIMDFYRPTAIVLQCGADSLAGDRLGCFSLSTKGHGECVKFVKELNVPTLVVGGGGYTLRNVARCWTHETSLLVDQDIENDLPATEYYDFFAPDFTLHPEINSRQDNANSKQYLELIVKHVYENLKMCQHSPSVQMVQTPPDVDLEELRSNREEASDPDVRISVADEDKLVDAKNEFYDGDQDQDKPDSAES
In words: co-IP; Kc cells with CtBP-V5 and HDAC3-Flag lysed in NP-40 lysis buffer with protease inhibitors; protein A + G agarose beads and antibody to the tag, overnight at 4 °C; reciprocal precipitation; detection by Western blot.

The target of assay [2] is Drosophila C-terminal binding protein, V5-tagged (CtBP-V5) (Drosophila) (UniProt O46036). Described as above.

Take “Drosophila C-terminal binding protein, V5-tagged (CtBP-V5) (from UniProt O46036 1-476)”: the binding result in assay [1] is recorded as “binds”.

B1: Drosophila histone deacetylase 3, Flag-tagged (HDAC3-Flag) (enzyme, UniProt Q7KTS4 1-438)
chain: T1 sequence
Turning to B1, the binding entry in assay [2] is listed as “binds”.
